Drawing on paper PMC3978604 (Arthritis Research & Therapy, 2013), this text covers IC50 for one compound.

For assay [1], the system named is human PBMCs, CD3+ T cells. In words: IL-2-induced STAT5 phosphorylation in CD3+ T cells (flow cytometry). It is filed as cell-based. Conditions: T-cell. An excerpt: (§1) For IL-2-induced STAT5 phosphorylation, cells were stained with FITC anti-human CD3 and Alexa Fluor 647 anti-STAT5(pY694), and quantitated pSTAT5 fluorescence intensity gated on the CD3^+ T-cell population. For IFNγ-induced STAT1 phosphorylation, cells were stained with PE anti-human CD14 (Beckman Coulter, Indianapolis, IN, USA) and Alexa Fluor 647 anti-STAT1 ([…]), and quantitated pSTAT1 fluorescence intensity gated on CD14^+ monocytes/macrophages.
(In general: Flow cytometry measures light scatter and fluorescence of single cells or particles in a stream.)

Assay [2] relates to human PBMCs, CD14+ monocytes. The assay is described as follows: IFNγ-induced STAT1 phosphorylation in CD14+ monocytes (flow cytometry). It counts as cell-based. The following applies: Monocyte.
Text: as §1

The IC50 is the concentration that inhibits the measured activity by half. A lower IC50 goes with greater potency in that assay. Turning to `C[C@@H]1CCN(C(=O)CC#N)C[C@@H]1N(C)c1ncnc2[nH]ccc12` [tofacitinib, reference compound], the concentration for half-maximal inhibition (IC50) in assay [1] stood at 31 ± 13 nM; in assay [2], 81 ± 50 nM.
